Data reported in publication PMC4150762, “The DEAD-box helicase Ded1 from yeast is an mRNP cap-associated protein that shuttles between the cytoplasm and nucleus” (Nucleic Acids Research, 2014).
Where two headings read alike, the source gives them in different places. No constants are given. Whether binding was seen depends on the method and setting. For some of these results: In cells and extracts the contact can be indirect. Some entries that bind do so weakly or less than the wild type. For some of these results: Where a sequence is shown, tags or fusion partners need not be part of it. Values belong to the molecule of their own block, whether it stands above or below them.

By UniProt entry, the sequences of proteins in these tests, tags left out.
UniProt P06634: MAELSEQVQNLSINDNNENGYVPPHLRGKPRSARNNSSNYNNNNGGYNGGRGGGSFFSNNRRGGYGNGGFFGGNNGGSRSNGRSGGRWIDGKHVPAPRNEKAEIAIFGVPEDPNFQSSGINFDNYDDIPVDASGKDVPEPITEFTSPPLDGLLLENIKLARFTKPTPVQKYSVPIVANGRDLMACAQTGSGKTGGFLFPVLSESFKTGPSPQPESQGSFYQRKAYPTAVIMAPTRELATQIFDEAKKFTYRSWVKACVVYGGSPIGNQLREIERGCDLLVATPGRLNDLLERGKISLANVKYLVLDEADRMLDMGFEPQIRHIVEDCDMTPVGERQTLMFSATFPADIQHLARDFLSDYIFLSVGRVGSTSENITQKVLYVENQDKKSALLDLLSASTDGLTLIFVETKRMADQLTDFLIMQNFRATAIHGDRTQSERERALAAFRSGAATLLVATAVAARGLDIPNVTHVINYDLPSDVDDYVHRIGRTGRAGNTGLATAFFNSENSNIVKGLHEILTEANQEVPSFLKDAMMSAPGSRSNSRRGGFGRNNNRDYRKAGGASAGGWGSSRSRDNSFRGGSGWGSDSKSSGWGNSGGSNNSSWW

How the values were obtained:
[1] = molecular target: T1, eIF4E with an amino-terminal His6 tag (S. cerevisiae) (UniProt P07260); experiment: pull-down; 7-methyl-GTP Sepharose beads loaded with 5 μg purified eIF4E or Cbp20, 5 μg of the purified proteins added with 50 U RNase I, 90 min on ice, TpB buffer (20 mM HEPES pH 7.9, 100 mM KCl, 2 mM MgCl2, 2 mM DTT), eluted with 1 mM 7-methyl-GTP; Coomassie-stained SDS PAGE; both purified
T1 sequence: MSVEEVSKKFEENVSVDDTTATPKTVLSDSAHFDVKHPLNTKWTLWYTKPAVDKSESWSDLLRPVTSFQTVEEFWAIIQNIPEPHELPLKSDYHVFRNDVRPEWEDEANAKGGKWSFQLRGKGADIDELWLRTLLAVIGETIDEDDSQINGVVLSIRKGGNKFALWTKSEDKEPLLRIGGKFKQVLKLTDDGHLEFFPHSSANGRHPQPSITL

[2] = molecular target: T2, MalE-Cbp80 (S. cerevisiae) (UniProt P34160); experiment: pull-down; MalE-Cbp80 bound to amylose resin, incubated with purified proteins, eluted with 10 mM maltose; western blot with IgG against Ded1, Cbp80 and the His6 tag of Cbp20; both purified
T2 sequence: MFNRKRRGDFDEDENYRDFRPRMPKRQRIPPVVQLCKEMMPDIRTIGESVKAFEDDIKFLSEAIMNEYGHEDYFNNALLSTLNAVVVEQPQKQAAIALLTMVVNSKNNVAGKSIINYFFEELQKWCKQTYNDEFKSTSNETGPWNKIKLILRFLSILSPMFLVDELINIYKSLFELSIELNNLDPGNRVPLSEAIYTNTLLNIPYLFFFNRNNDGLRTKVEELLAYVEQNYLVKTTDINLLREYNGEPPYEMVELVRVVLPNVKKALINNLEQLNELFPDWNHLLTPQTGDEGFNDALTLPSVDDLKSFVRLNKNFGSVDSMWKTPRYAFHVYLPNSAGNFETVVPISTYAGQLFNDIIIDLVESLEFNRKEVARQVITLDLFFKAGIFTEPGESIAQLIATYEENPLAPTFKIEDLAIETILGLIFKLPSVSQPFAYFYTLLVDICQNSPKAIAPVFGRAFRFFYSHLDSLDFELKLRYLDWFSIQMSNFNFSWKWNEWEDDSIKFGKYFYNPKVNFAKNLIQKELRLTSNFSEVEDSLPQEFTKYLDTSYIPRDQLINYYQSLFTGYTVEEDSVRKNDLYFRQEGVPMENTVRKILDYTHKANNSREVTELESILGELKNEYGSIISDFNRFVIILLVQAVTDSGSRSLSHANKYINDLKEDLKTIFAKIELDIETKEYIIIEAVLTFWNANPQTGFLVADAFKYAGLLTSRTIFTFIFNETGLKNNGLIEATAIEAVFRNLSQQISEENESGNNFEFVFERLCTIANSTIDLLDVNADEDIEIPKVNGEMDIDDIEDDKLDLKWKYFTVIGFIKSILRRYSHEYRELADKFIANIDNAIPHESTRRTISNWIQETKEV

[3] = molecular target: T3, His6-Cbp20 (S. cerevisiae) (UniProt Q08920); experiment: pull-down; 7-methyl-GTP Sepharose beads loaded with 5 μg purified eIF4E or Cbp20, 5 μg of the purified proteins added with 50 U RNase I, 90 min on ice, TpB buffer (20 mM HEPES pH 7.9, 100 mM KCl, 2 mM MgCl2, 2 mM DTT), eluted with 1 mM 7-methyl-GTP; Coomassie-stained SDS PAGE; both purified
T3 sequence: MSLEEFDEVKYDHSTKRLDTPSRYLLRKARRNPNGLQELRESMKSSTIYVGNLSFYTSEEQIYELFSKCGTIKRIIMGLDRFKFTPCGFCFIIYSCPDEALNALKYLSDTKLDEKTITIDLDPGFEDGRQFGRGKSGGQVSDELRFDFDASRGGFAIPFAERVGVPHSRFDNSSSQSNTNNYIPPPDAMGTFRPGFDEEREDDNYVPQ

[4] = molecular target: Ded1 (S. cerevisiae (endogenous in BY4742)), P06634; experiment: co-IP; Ded1-IgG crosslinked to protein A-Sepharose beads incubated with yeast extracts 1–2 h at 4°C, generally with 1 μg/ml RNase A; washed with PBS, eluted with glycine pH 2.5; western blot; pre-immune serum as control; conditions: remark: other sources report otherwise
[5] = molecular target: T4, GST-eIF4G1 fragment 1-596 (S. cerevisiae) (UniProt P39935); experiment: pull-down; positive control: eIF4G fragments with eIF4E or eIF4A; data not shown; both purified
T4 sequence: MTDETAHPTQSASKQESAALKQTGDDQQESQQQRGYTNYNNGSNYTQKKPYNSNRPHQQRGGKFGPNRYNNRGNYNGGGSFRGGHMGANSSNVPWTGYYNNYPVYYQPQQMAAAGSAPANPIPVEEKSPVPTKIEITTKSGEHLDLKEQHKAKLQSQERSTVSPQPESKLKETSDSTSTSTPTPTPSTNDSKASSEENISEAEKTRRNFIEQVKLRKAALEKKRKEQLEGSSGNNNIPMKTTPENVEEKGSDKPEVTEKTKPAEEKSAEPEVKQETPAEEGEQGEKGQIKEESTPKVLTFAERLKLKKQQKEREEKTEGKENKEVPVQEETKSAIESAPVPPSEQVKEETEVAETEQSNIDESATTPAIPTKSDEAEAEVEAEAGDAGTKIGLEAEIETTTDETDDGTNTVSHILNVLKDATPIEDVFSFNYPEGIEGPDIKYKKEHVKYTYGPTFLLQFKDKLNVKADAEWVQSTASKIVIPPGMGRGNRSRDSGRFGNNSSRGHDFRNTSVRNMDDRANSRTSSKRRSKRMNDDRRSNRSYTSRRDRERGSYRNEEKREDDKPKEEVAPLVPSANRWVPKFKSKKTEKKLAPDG

[6] = molecular target: Ded1 (S. cerevisiae (endogenous in BY4742)) (UniProt P06634); experiment: co-IP; Ded1-IgG crosslinked to protein A-Sepharose beads incubated with yeast extracts 1–2 h at 4°C, generally with 1 μg/ml RNase A; washed with PBS, eluted with glycine pH 2.5; western blot; pre-immune serum as control
Ded1-His6 = Ded1-His6 (S. cerevisiae, UniProt P06634 1-604); experiment: pull-down; Ded1 bound to protein A Sepharose beads crosslinked to IgG against Ded1, incubated with single purified proteins, washed, eluted; Coomassie-stained SDS PAGE, western blot for Pab1 and Cbp80; same results with or without RNase I or AMP-PNP; both purified
[7] = molecular target: T3, His6-Cbp20 (S. cerevisiae); experiment: pull-down; 7-methyl-GTP Sepharose beads loaded with 5 μg purified eIF4E or Cbp20, 5 μg of the purified proteins added with 50 U RNase I, 90 min on ice, TpB buffer (20 mM HEPES pH 7.9, 100 mM KCl, 2 mM MgCl2, 2 mM DTT), eluted with 1 mM 7-methyl-GTP; Coomassie-stained SDS PAGE; both purified; remark: listed apart in the source

Molecule: Ded1-His6 (from UniProt P06634 1-604) (enzyme; other documents disagree on this pair)
- binding [1]: binds

B4: eIF4G2 (protein, UniProt P39936 1-914)
chain: MTDQRGPPPPHPQQANGYKKFPPHDNQYSGANNSQPNNHYNENLYSAREPHNNKQYQSKNGKYGTNKYNNRNNSQGNAQYYNNRFNNGYRLNNNDYNPAMLPGMQWPANYYAPQMYYIPQQMVPVASPPYTHQPLNTNPEPPSTPKTTKIEITTKTGERLNLKKFHEEKKASKGEEKNDGVEQKSKSGTPFEKEATPVLPANEAVKDTLTETSNEKSTSEAENTKRLFLEQVRLRKAAMERKKNGLISETEKKQETSNHDNTDTTKPNSVIESEPIKEAPKPTGEANEVVIDGKSGASVKTPQHVTGSVTKSVTFNEPENESSSQDVDELVKDDDTTEISDTTGGKTVNKSDDETINSVITTEENTVKETEPSTSDIEMPTVSQLLETLGKAQPISDIYEFAYPENVERPDIKYKKPSVKYTYGPTFLLQFKDKLKFRPDPAWVEAVSSKIVIPPHIARNKPKDSGRFGGDFRSPSMRGMDHTSSSRVSSKRRSKRMGDDRRSNRGYTSRKDREKAAEKAEEQAPKEEIAPLVPSANRWIPKSRVKKTEKKLAPDGKTELFDKEEVERKMKSLLNKLTLEMFDSISSEILDIANQSKWEDDGETLKIVIEQIFHKACDEPHWSSMYAQLCGKVVKDLDPNIKDKENEGKNGPKLVLHYLVARCHEEFEKGWADKLPAGEDGNPLEPEMMSDEYYIAAAAKRRGLGLVRFIGYLYCLNLLTGKMMFECFRRLMKDLNNDPSEETLESVIELLNTVGEQFEHDKFVTPQATLEGSVLLDNLFMLLQHIIDGGTISNRIKFKLIDVKELREIKHWNSAKKDAGPKTIQQIHQEEEQLRQKKNSQRSNSRFNNHNQSNSNRYSSNRRNMQNTQRDSFASTKTGSFRNNQRNARKVEEVSQAPRANMFDALMNNDGDSD
- binding [6]: binds weakly

B5: MalE-Cbp80 (protein, UniProt P34160 1-861)
chain: T2 sequence
- binding (Ded1-His6): binds
- binding [7]: binds

B6: His6-Cbp20 (natural protein, S. cerevisiae, UniProt Q08920 1-208, looked up)
chain: T3 sequence
notes: Cbp20 of S. cerevisiae subcloned from pRSETC20 into the NdeI-BamHI sites of pET19b; Printed name His6-Cbp20; also called Cpb20; source: E. coli (pET19b), purified on nickel-agarose
- binding [2]: binds

Results, then the molecule that gave them:

- binding [2]: binds
- binding [3]: binds weakly
Molecule: Ded1-His6 (from UniProt P06634 1-604) (enzyme)

- binding [4]: binds
B1: eIF4E, P07260 1-213 (protein)
chain: T1 sequence

- binding [5]: binds
B2: eIF4E with an amino-terminal His6 tag (natural protein, S. cerevisiae, UniProt P07260 1-213, looked up)
chain: T1 sequence
notes: eIF4E (CDC33) of S. cerevisiae cloned into the NdeI-BamHI sites of pET15b; also called CDC33; source: E. coli (pET15b), purified on nickel-agarose

- binding [6]: binds
B3: GST-NAB2-HIS6 (natural protein, S. cerevisiae, UniProt P32505 1-525, looked up)
chain: MSQEQYTENLKVIVAEKLAGIPNFNEDIKYVAEYIVLLIVNGGTVESVVDELASLFDSVSRDTLANVVQTAFFALEALQQGESAENIVSKIRMMNAQSLGQSDIAQQQQQQQQQQQPDIAQQQPQQQPQQQPQQQPQQQPQQQPQQQPQQQPQQQPQLQPLQPQLGTQNAMQTDAPATPSPISAFSGVVNAAAPPQFAPVDNSQRFTQRGGGAVGKNRRGGRGGNRGGRNNNSTRFNPLAKALGMAGESNMNFTPTKKEGRCRLFPHCPLGRSCPHAHPTKVCNEYPNCPKPPGTCEFLHPNEDEELMKEMERTREEFQKRKADLLAAKRKPVQTGIVLCKFGALCSNPSCPFGHPTPANEDAKVIDLMWCDKNLTCDNPECRKAHSSLSKIKEVKPISQKKAAPPPVEKSLEQCKFGTHCTNKRCKYRHARSHIMCREGANCTRIDCLFGHPINEDCRFGVNCKNIYCLFRHPPGRVLPEKKGAAPNSNVPTNERPFALPENAIIENAPPQTSFTHQEQDTEMN
